Results reported in the supplement of paper PMC10849652.
This is one part of the list.

Sequences of proteins named here, by UniProt entry; tags and fusion partners are left off. A change or cut given only in a name is not applied to a line headed by its entry.
UniProt Q8NF64: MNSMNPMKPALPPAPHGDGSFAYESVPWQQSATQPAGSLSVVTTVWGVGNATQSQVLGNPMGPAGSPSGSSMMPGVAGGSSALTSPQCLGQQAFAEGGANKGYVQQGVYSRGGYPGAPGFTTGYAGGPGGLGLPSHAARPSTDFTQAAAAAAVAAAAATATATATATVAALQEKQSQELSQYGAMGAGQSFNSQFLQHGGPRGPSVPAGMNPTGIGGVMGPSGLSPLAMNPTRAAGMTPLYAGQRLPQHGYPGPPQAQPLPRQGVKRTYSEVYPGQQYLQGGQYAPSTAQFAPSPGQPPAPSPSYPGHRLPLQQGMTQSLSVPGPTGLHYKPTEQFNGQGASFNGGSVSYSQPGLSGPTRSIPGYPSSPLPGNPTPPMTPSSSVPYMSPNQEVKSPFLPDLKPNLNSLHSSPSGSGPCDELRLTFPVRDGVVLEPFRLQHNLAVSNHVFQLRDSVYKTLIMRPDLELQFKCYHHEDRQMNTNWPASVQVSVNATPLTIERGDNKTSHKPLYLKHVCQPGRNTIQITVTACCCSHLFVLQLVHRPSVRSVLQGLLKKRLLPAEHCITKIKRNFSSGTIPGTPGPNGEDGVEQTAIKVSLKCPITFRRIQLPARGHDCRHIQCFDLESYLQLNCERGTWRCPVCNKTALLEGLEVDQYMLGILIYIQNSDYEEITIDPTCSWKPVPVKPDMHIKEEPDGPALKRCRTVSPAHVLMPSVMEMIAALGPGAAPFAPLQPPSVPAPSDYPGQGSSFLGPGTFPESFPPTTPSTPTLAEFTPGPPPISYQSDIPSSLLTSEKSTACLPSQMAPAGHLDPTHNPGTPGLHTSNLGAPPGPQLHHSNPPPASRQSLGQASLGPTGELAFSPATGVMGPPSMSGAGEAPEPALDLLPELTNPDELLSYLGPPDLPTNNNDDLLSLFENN
UniProt O15014: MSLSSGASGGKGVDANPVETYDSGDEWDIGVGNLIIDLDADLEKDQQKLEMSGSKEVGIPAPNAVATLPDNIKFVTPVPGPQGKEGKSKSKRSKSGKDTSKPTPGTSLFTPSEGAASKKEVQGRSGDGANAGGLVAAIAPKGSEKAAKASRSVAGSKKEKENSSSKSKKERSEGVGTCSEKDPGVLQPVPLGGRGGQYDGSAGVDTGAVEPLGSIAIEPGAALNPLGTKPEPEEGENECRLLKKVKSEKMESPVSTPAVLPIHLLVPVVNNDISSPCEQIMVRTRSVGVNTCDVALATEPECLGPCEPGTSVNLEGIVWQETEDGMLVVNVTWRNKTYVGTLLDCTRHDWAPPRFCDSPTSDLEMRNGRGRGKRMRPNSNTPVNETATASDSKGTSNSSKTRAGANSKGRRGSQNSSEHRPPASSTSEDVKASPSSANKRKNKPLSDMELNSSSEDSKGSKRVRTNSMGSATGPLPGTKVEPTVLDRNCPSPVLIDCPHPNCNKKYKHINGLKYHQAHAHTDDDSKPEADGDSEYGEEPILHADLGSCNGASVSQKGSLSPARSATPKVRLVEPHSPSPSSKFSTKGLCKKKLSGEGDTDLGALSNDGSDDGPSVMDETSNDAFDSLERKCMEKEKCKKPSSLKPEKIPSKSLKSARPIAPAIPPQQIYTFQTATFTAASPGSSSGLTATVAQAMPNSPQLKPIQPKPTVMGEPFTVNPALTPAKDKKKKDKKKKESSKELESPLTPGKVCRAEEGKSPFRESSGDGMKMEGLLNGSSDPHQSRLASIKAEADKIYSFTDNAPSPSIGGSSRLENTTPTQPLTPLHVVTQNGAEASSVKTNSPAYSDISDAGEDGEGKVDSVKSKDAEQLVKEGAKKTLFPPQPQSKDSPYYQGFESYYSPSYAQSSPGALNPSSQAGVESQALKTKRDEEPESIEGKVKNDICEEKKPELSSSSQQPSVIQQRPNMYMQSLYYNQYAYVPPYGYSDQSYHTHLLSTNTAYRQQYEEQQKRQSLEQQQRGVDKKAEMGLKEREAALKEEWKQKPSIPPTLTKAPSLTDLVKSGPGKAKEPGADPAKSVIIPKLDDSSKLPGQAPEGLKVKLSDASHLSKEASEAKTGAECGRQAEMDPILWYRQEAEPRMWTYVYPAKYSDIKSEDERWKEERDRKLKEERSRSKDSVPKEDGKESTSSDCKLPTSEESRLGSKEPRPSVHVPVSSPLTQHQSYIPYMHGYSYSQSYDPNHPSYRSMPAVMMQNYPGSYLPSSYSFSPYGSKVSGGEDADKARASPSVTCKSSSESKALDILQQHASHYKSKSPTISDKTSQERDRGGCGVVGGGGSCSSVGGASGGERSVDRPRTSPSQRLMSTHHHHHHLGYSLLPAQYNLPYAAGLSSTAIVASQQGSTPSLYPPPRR
UniProt Q8IYB9: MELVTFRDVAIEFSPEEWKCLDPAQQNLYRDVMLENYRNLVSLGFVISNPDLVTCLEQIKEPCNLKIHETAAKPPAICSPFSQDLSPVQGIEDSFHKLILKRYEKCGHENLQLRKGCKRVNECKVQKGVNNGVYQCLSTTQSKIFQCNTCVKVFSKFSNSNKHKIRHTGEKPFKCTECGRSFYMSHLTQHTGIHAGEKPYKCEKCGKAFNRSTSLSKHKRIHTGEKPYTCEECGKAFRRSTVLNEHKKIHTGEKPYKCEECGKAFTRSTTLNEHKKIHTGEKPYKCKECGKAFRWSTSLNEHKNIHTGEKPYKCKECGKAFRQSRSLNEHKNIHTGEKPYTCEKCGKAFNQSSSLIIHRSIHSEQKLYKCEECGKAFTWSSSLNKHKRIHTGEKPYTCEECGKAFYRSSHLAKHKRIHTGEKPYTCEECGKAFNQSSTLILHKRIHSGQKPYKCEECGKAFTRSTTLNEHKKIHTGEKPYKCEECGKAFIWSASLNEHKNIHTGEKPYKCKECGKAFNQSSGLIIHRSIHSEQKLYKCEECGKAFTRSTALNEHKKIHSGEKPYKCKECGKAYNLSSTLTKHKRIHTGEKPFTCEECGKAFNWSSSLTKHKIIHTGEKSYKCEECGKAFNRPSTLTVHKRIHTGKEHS
UniProt Q16587: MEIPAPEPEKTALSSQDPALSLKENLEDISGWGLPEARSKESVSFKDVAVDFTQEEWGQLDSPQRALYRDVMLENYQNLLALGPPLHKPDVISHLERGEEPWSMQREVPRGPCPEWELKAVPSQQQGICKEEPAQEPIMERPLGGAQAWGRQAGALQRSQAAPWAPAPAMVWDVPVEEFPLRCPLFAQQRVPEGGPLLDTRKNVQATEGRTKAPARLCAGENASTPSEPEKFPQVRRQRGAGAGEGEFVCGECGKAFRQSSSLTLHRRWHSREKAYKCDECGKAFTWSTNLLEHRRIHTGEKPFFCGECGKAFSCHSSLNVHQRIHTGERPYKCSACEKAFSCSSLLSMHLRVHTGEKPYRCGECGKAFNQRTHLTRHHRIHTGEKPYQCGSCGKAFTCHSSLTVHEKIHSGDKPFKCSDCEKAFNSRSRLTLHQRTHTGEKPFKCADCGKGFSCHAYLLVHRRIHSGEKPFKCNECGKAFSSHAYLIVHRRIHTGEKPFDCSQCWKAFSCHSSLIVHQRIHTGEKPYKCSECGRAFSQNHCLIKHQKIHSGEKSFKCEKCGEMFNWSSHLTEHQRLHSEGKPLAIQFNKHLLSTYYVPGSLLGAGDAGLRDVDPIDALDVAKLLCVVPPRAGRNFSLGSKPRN
UniProt Q9UL40: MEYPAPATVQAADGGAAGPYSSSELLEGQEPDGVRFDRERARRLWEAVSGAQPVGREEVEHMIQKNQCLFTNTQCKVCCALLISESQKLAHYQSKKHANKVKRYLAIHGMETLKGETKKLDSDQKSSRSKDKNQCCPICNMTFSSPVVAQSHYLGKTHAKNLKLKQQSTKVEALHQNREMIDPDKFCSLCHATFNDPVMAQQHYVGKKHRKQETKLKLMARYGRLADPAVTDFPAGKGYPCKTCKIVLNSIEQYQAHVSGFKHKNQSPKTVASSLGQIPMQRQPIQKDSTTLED
UniProt Q2TB10: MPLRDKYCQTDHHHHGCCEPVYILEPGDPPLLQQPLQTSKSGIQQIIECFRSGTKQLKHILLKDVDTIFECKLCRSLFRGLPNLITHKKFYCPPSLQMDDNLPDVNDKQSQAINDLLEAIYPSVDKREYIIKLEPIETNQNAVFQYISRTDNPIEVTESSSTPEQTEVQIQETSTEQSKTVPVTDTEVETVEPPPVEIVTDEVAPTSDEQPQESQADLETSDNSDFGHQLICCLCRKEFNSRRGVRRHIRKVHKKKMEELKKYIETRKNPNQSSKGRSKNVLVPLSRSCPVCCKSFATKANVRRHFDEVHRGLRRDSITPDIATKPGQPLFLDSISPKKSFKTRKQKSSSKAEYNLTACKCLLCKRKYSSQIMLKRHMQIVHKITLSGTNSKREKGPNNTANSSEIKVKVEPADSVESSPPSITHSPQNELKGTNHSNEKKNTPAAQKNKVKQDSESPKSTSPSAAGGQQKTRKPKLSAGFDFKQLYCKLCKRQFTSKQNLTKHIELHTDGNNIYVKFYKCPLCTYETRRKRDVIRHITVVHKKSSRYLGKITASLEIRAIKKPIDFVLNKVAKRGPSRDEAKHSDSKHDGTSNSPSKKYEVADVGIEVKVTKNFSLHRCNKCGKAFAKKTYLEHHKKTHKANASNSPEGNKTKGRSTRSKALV
UniProt Q9P1U0, whole entry, looked up: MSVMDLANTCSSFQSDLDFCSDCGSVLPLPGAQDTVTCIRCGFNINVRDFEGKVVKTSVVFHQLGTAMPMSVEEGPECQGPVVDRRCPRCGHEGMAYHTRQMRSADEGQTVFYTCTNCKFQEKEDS
UniProt Q9Y2X9: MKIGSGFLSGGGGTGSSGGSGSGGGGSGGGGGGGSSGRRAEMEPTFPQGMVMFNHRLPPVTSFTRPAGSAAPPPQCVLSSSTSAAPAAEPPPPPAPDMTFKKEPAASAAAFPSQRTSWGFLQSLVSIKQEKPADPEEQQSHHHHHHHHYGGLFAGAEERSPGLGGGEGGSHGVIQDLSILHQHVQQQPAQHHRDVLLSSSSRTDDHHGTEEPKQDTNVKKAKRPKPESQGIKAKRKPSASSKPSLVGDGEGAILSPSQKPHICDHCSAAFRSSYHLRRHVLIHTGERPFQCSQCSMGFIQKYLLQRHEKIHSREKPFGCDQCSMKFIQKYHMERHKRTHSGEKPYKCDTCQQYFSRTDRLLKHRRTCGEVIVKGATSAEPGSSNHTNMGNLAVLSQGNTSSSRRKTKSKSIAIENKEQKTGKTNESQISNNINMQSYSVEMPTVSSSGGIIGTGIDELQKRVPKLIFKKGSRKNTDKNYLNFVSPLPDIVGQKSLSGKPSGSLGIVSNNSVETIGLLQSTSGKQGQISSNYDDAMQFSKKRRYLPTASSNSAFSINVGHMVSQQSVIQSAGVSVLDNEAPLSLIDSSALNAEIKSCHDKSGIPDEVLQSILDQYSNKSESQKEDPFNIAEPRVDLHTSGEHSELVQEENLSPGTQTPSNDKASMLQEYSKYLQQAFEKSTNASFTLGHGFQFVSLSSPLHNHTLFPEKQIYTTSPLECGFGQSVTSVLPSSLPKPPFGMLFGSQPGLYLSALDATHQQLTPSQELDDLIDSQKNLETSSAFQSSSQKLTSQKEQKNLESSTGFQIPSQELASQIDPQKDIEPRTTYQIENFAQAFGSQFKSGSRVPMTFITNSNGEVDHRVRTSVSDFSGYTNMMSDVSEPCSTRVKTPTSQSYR
UniProt Q9H4I2: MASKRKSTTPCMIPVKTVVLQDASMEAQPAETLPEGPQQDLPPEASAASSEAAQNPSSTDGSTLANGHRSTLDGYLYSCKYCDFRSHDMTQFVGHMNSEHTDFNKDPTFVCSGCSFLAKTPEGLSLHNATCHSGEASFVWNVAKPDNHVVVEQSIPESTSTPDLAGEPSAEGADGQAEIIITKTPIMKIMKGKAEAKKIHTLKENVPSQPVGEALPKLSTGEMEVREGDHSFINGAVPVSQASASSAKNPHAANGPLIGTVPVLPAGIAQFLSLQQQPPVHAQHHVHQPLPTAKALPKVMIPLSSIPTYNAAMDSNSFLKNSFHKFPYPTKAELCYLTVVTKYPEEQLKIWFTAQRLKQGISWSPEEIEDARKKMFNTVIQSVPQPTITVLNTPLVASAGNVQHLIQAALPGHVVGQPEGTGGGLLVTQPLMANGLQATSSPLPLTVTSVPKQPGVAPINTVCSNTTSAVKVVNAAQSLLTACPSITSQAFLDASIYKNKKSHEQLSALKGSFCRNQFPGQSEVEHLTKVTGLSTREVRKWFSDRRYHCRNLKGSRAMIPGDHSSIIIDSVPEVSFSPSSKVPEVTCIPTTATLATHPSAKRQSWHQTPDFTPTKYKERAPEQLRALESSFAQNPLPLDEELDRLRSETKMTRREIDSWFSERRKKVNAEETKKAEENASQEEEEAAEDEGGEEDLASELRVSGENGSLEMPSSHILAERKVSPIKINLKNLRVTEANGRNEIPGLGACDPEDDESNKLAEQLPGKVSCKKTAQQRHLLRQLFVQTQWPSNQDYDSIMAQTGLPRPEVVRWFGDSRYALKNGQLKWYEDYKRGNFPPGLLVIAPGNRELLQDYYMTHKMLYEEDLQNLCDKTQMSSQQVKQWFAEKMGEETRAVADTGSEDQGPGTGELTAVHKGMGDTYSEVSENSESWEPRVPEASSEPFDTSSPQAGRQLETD

Experiments:
Experiment in all cases: log2 fold change, soluble protein after heating vs DMSO (PISA); higher = thermal stabilisation; K562 lysate, 10 uM; active = over 0.2 and 3.5 SD of the protein, either way, in both replicates (recomputed)
erlotinib = compound: C#Cc1cccc(Nc2ncnc3cc(OCCOC)c(OCCOC)cc23)c1 [erlotinib]
Summary of the method: (§1)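 Soluble protein was defined as the supernatant remaining after 21,000xg for 90 min, following pooling of heated aliquots and adjustment to 0.5% NP-40 at 4°C. Before that, crude K562 extract at 1 mg/mL protein in PBS pH 7.4 with 1 mM MgCl2 was treated with 10 μM compound for 30 min and heated for 3 min across 48°C-58°C. Quantification used TMTpro 16plex LC-MS/MS with channel sums equalised, and values are log-two fold changes in thermal stability relative to solvent controls from duplicates.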

[1] = compound: C/C(=N\NC(=O)C1=CC(=CC=C1)S(=O)(=O)N2CCOCC2)/C3=C(C=CC(=C3)Cl)O
Summary of the method: as §1

[2] = compound: C1=CC(=CC=C1C2=NC3=C(N2)C=C(C=C3)C(=O)N)OC4=CC=C(C=C4)Cl
Summary of the method: as §1

[3] = compound: C1=CC2=C(C=CC(=C2)/C=C\3/C(=O)NC(=NCC4=CC=CS4)S3)N=C1
Summary of the method: as §1

[4] = compound: C1=CC2=NC=CN=C2C=C1/C=C/3\C(=O)NC(=O)S3
Summary of the method: as §1

[5] = compound: C1=CC=C(C=C1)C2=NC(=C(N2)C3=CC=NC=C3)C4=CC(=C(C=C4)Cl)O
Summary of the method: as §1

[6] = compound: C1=CC=C2C(=C1)C3=NNC4=CC=CC(=C43)C2=O
Summary of the method: as §1

[7] = compound: C1CCN(C1)C(=O)NC2=CC=CC(=C2)NC3=NC=C(C(=N3)NCCC4=CN=CN4)Br
Summary of the method: as §1

[8] = compound: C1CN(CCC1(CC2=CC=C(C=C2)Cl)N)C3=NC=NC4=C3C=CN4
Summary of the method: as §1

IRAK-1-4 Inhibitor I = compound: C1COCCN1CCN2C3=CC=CC=C3N=C2NC(=O)C4=CC(=CC=C4)[N+](=O)[O-] [IRAK-1-4 Inhibitor I]
Summary of the method: as §1

ibrutinib = compound: C=CC(=O)N1CCC[C@@H](n2nc(-c3ccc(Oc4ccccc4)cc3)c3c(N)ncnc32)C1 [ibrutinib]
Summary of the method: as §1

ralimetinib = compound: CC(C)(C)Cn1c(N)nc2ccc(-c3[nH]c(C(C)(C)C)nc3-c3ccc(F)cc3)nc21 [ralimetinib]
Summary of the method: as §1

[9] = compound: CC(C)(O)CC(=O)NCCn1ccc2ncnc(Nc3ccc(Oc4cccc(C(F)(F)F)c4)c(Cl)c3)c21
Summary of the method: as §1

[10] = compound: CC(C)C1=C2N=C(C=C(N2N=C1)NCC3=CC=CC=C3)NCCCCCCN
Summary of the method: as §1

[11] = compound: CC1=C(C(CC(=O)N1)C2=CC=C(C=C2)C(F)(F)F)C(=O)NC3=C(C=C4C(=C3)C=NN4)F
Summary of the method: as §1

[12] = compound: CC1=C(C2=C(C=C1)C(=O)C3=CC=CC=C3N2CCCN)C
Summary of the method: as §1

[13] = compound: CC1=C(C=C(C=C1)NC(=O)C2=CC(=CC=C2)C(C)(C)C#N)NC3=CC4=C(C=C3)N=CN(C4=O)C
Summary of the method: as §1

[14] = compound: CC1=C(C=C(C=C1)NC(=O)C2=CC(=CC=C2)N(C)C)NC(=O)C3=CC=C(C=C3)O
Summary of the method: as §1

[15] = compound: CC(=O)c1cnc2ccc(-c3cc(Cl)c(O)c(Cl)c3)nc2c1N[C@H]1CC[C@H](CN(C)C)CC1
Summary of the method: as §1

[16] = compound: CC1=CC=C(C=C1)SC2=C3C=C(SC3=CN=C2)C(=O)N
Summary of the method: as §1

Measured: log2 fold change

ZNF507 (UniProt Q8TCN5)
inactive: erlotinib -0.088 | [1] -0.126 | [2] 0.008 | [3] 0.035 | [4] -0.052 | [5] 0.006 | [6] -0.036 | [7] 0.012 | [8] -0.039 | IRAK-1-4 Inhibitor I 0.028 | ibrutinib 0.004 | ralimetinib 0.021 | [9] -0.025 | [10] 0.005 | [11] 0.072 | [12] 0.019 | [13] -0.009 | [14] 0.022

ZMIZ2 (UniProt Q8NF64)
inactive: erlotinib -0.025 | [1] -0.013 | [2] 0.108 | [3] -0.02 | [4] -0.075 | [6] -0.041 | [7] -0.047 | [8] 0.008 | ibrutinib 0.114 | [15] 0.071 | [10] -0.026 | [11] 0.012 | [12] -0.123 | [13] 0 | [16] 0.011

ZNF609 (UniProt O15014)
inactive: erlotinib -0.035 | [1] -0.013 | [2] 0.028 | [3] -0.029 | [4] -0.053 | [5] -0.023 | [6] -0.109 | [7] -0.008 | [8] 0.026 | IRAK-1-4 Inhibitor I -0.005 | ibrutinib 0.005 | [15] -0.025 | ralimetinib 0.01 | [9] -0.034 | [10] -0.001 | [11] 0.01 | [12] -0.045 | [13] -0.082 | [14] 0.013 | [16] -0.058

ZZZ3 (UniProt Q8IYH5)
inactive: erlotinib 0.111 | [1] 0.024 | [2] -0.083 | [3] 0.019 | [4] 0.015 | [5] 0.085 | [6] 0.04 | [7] 0.019 | [8] -0.019 | IRAK-1-4 Inhibitor I -0.022 | ibrutinib 0.257 | ralimetinib 0.021 | [9] 0.019 | [10] 0.147 | [11] -0.107 | [12] -0.021 | [13] 0.001 | [14] 0.009

ZNF225 (UniProt Q9UK10)
inactive: erlotinib 0.157 | [1] -0.315 | [2] -0.047 | [3] 0.078 | [4] -0.054 | [5] 0.09 | [6] -0.14 | [7] -0.092 | [8] 0.186 | IRAK-1-4 Inhibitor I 0.127 | ibrutinib -0.122 | ralimetinib -0.174 | [9] -0.356 | [10] 0.044 | [12] -0.502 | [14] -0.012

ZNF217 (UniProt O75362)
inactive: erlotinib -0.014 | [1] -0.043 | [2] 0.06 | [3] -0.132 | [4] -0.004 | [5] 0.027 | [6] -0.162 | [7] -0.014 | [8] 0.028 | IRAK-1-4 Inhibitor I 0.007 | ibrutinib -0.033 | [15] 0.053 | ralimetinib 0.017 | [9] -0.014 | [10] -0.061 | [11] -0.005 | [12] -0.022 | [13] 0.002 | [14] 0.025 | [16] -0.031

ZNF384 (UniProt Q8TF68)
inactive: erlotinib -0.002 | [2] 0.017 | [5] 0.124 | [7] -0.168 | [8] 0.083 | IRAK-1-4 Inhibitor I 0.051 | [15] -0.124 | ralimetinib -0.023 | [9] -0.046 | [10] 0.025 | [11] -0.037 | [12] -0.029 | [13] 0.002 | [14] 0.003 | [16] 0.08

ZNF627 (UniProt Q7L945)
inactive: erlotinib -0.02 | [2] -0.082 | [4] -0.027 | ibrutinib 0.003 | [10] 0.33 | [13] -0.081

ZNF595 (UniProt Q8IYB9)
inactive: [1] -0.06 | [3] -0.008 | [5] 0.011 | [6] 0.172 | [7] -0.019 | [8] -0.106 | IRAK-1-4 Inhibitor I -0.015 | ralimetinib 0.19 | [9] 0.104 | [13] -0.037 | [14] -0.086

ZNF74 isoform 5 (UniProt Q16587)
inactive: erlotinib -0.173 | [2] 0.108 | [4] -0.045 | [5] -0.044 | [7] 0.355 | [8] -0.048 | IRAK-1-4 Inhibitor I -0.057 | ibrutinib -0.268 | [15] 0.045 | ralimetinib 0.109 | [9] 0.255 | [10] -0.091 | [11] 0.12 | [12] -0.237 | [14] 0.253 | [16] 0.149

ZNF670 (UniProt Q9BS34)
inactive: erlotinib -0.007 | [2] 0.02 | [10] -0.01 | [11] 0.006

ZNF687 (UniProt Q8N1G0)
inactive: erlotinib 0.049 | [2] 0.016 | [5] -0.054 | [7] 0.065 | [8] -0.129 | IRAK-1-4 Inhibitor I 0.051 | [15] -0.058 | ralimetinib 0.119 | [9] -0.007 | [10] -0.04 | [11] -0.088 | [12] -0.056 | [13] 0.037 | [14] 0.199 | [16] -0.002

ZNF346 (UniProt Q9UL40)
inactive: erlotinib -0.057 | [2] -0.009 | [4] -0.035 | [5] -0.014 | [7] 0.016 | [8] -0.002 | IRAK-1-4 Inhibitor I 0.015 | ibrutinib -0.041 | [15] 0.008 | ralimetinib -0.019 | [9] -0.075 | [10] -0.012 | [11] -0.08 | [12] 0.111 | [13] -0.019 | [14] -0.004 | [16] 0.018

ZNF800 (UniProt Q2TB10)
inactive: erlotinib -0.012 | [2] 0.043 | [15] 0 | [10] -0.175 | [12] -0.11 | [16] 0.147

Retrieved one by one from above, 2 records:
ZNF74 isoform 5 (UniProt Q16587)
inactive: erlotinib -0.173 | [2] 0.108 | [4] -0.045 | [5] -0.044 | [7] 0.355 | [8] -0.048 | IRAK-1-4 Inhibitor I -0.057 | ibrutinib -0.268 | [15] 0.045 | ralimetinib 0.109 | [9] 0.255 | [10] -0.091 | [11] 0.12 | [12] -0.237 | [14] 0.253 | [16] 0.149

ZNF800 (UniProt Q2TB10)
inactive: erlotinib -0.012 | [2] 0.043 | [15] 0 | [10] -0.175 | [12] -0.11 | [16] 0.147

Additional entries:

ZNRD1 (UniProt Q9P1U0)
inactive: erlotinib -0.055 | [2] -0.09 | [10] 0.087 | [11] -0.005

ZNF654, A0A1B0GWA0
inactive: erlotinib 0.036 | [2] -0.101 | [4] -0.148 | [5] -0.043 | IRAK-1-4 Inhibitor I -0.062 | ibrutinib -0.076 | [15] 0.17 | ralimetinib 0.129 | [9] -0.083 | [10] 0.088 | [11] 0.04 | [13] 0.203 | [14] -0.061 | [16] 0.048

ZNF101 (UniProt Q8IZC7)
inactive: erlotinib -0.515 | [2] -0.254 | [5] -0.141 | IRAK-1-4 Inhibitor I -0.066 | [15] 0.093 | ralimetinib 0.103 | [9] 0.042 | [10] 0.116 | [12] -0.06 | [13] -0.139 | [14] -0.216 | [16] 0.05

ZNF281 (UniProt Q9Y2X9)
inactive: erlotinib -0.191 | [2] -0.106 | [5] 0.006 | IRAK-1-4 Inhibitor I 0.069 | ralimetinib -0.055 | [9] 0.081 | [10] 0.039 | [12] -0.008 | [13] -0.081 | [14] -0.041

ZNF771 (UniProt Q7L3S4)
inactive: erlotinib 0.025 | [2] 0.061 | [4] -0.127 | ibrutinib 0.096 | [15] -0.056 | [10] -0.051 | [16] -0.037

ZMYM5 (UniProt Q9UJ78)
inactive: erlotinib 0.005 | [1] 0.065 | [2] 0.072 | [3] 0 | [6] -0.09 | [10] -0.073

ZHX3 (UniProt Q9H4I2)
inactive: [1] 0.258 | [3] 0.279 | [4] -0.002 | [5] 0.015 | [6] 0.201 | IRAK-1-4 Inhibitor I 0.029 | ibrutinib 0.125 | [15] 0.059 | ralimetinib 0.015 | [9] -0.016 | [11] -0.134 | [12] -0.051 | [14] 0.126 | [16] -0.105
